The target in data set [1] is T1, Lin28 (Lin28A) (Mus musculus (murine)) (UniProt Q8K3Y3).
T1 sequence (looked up): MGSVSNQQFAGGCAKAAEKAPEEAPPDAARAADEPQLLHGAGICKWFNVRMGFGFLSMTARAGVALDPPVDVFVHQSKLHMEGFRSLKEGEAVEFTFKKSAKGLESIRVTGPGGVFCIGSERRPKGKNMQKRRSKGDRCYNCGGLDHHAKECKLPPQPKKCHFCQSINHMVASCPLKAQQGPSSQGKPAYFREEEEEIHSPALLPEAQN
Kind of data set: EMSA (stoichiometric). Conditions: 0.5 µM RNA, EMSA: 50 mM Tris pH 7.6, 50 mM NaCl, 10% glycerol, 0.05% NP-40 alternative, 2 mM DTT, 4°C, 2-AP: 50 mM Tris pH 7.6, 50 mM NaCl, recombinant protein, residues 1-209, label: 5'-32P. In general terms: Mobility shift assays separate free from complexed probe on a gel.

Data set [2] deals with T2, Lin28 C139A/C161A (Mus musculus (murine)) (UniProt Q8K3Y3).
T2 sequence (looked up): T1 sequence (looked up) with C139A, C161A
Briefly: EMSA (stoichiometric). As to conditions: 0.5 µM RNA, EMSA: 50 mM Tris pH 7.6, 50 mM NaCl, 10% glycerol, 0.05% NP-40 alternative, 2 mM DTT, 4°C, 2-AP: 50 mM Tris pH 7.6, 50 mM NaCl, recombinant protein, residues 1-209, label: 5'-32P.

The target of data set [3] is T3, Lin28 119-180 (Mus musculus (murine)) (UniProt Q8K3Y3).
T3 sequence (looked up): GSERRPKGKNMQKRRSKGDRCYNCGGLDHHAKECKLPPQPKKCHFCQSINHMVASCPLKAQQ
Kind of data set: EMSA (stoichiometric). Conditions: 0.5 µM RNA, EMSA: 50 mM Tris pH 7.6, 50 mM NaCl, 10% glycerol, 0.05% NP-40 alternative, 2 mM DTT, 4°C, 2-AP: 50 mM Tris pH 7.6, 50 mM NaCl, recombinant protein, residues 119-180, label: 5'-32P.

The target of data set [4] is T1, Lin28 (Lin28A) (Mus musculus (murine)). Kind of data set: EMSA. As to conditions: EMSA: 50 mM Tris pH 7.6, 50 mM NaCl, 10% glycerol, 0.05% NP-40 alternative, 2 mM DTT, 4°C, 2-AP: 50 mM Tris pH 7.6, 50 mM NaCl, recombinant protein, residues 1-209, label: 5'-32P.

Numbering of substitutions follows the chain as printed. For some of these results: The comparison behind a weaker result is the experiment's own reference, which may not be listed here. Where a protein sequence is shown, tags need not be part of it. For some of these results: For at least one entry, the source does not settle the construct or the ends of the probe. Bounds are passed on as bounds.

As for “GCAGAUGUCUAUGAUACCACCCGGUACAGGAGAUAUCUGCA [TL-let-7g Δbulge]”, the binding result in data set [1] and in data set [2] was “binds more weakly” throughout.

Consider “GCAGAUUGAGGGUCUAUGAUACCACCCGGUACAGGAGAUAUCUGCA [TL-let-7g]”, for which the binding result in data set [2] is “binds more weakly”.

Regarding “GCAGAUUGAGGGUCUUGUACCACCCGGUACAAGAUAUCUGCA [TL-let-7g Δiloop]”, the binding result in data set [2] and in data set [3] was “binds more weakly” each time.

Usually Kd stands for the equilibrium constant for the complex coming apart. Take UGAGGGUC [TL6-13]: the Kd in data set [4] (not detectable up to 5 µM protein) was over 5 µM.

In the case of AUUGACGCUCUAUA [TL5-18V], in data set [4], the Kd was over 5 µM.

The record behind these values is article PMC3985620, “Stepwise assembly of multiple Lin28 proteins on the terminal loop of let-7 miRNA precursors”.
